These results are taken from publication PMC7819943, “Rice protein-binding microarrays: a tool to detect cis-acting elements near promoter regions in rice”.

Protein sequences, listed by entry. Tags and fused reporters are not part of them.
UniProt Q0JBA9, entry or part of it: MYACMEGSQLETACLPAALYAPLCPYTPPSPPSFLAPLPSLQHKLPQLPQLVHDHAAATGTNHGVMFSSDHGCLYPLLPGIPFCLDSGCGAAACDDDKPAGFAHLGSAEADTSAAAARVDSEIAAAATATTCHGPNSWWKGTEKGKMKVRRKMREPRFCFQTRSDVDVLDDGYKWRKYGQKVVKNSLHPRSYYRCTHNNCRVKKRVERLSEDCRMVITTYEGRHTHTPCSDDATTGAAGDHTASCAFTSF

This is one part of the list.

This assay addresses OsWRKY34 (Oryza sativa, UniProt Q0JBA9 1-250). In words: protein-binding microarray (RPBM); PBS, 2% BSA, 51.3 ng/ul salmon testes DNA, 50 uM zinc acetate, 200 nM TF, 25 C, 1 h; high values mean tight binding. The settings on record: protein: recombinant; tags: N-terminal polyhistidine and DsRed monomer fusion (pET32a); label: CyDye5-dUTP incorporated in the synthesized complementary strand; 3' TTTTT single-stranded linker to array surface; dsDNA, one strand shown. The method, boiled down:
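The binding signal is fluorescence intensity per feature, in arbitrary units, read on an Axon 4000B scanner. Polyhistidine- and DsRed-tagged transcription factors (N-terminal fusions) from E. coli BL21-CodonPlus were purified on Ni–NTA and applied at 200 nM for 1 h at 25 °C to a double-stranded, BSA-blocked custom Agilent array in buffer with 50 µM zinc acetate.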
Take “CCGTTCTCTTGCTGCTGCTGCTTCTGCTTCTGCGCCGCCACGGAGTCACCTAGTGCAG”: the binding signal is 9550 fluorescence intensity (a.u.). The figure for “CTTCCATTCTTTCTAGTGCACTGTCTCAGTCAGGCATTATCGGAGTCACCTAGTGCAG” is 9740 fluorescence intensity (a.u.); for “ATTAGTCGTGTGCTTGTTTGTGCTGTCCAACTGTACTTAACGGAGTCACCTAGTGCAG” it is 8680 fluorescence intensity (a.u.); for “TTCCCTCCTCACAAGCCACACACTCTATGCTCTCTATCTGCGGAGTCACCTAGTGCAG” it is 9120 fluorescence intensity (a.u.). As to “TTCATACACACACAATTTTTCTATCATATCGTACAAATTTCGGAGTCACCTAGTGCAG”, the binding signal is 9060 fluorescence intensity (a.u.). As to “CAATCTCTGCACCCTCGGCTCGGCTCGCACCATTTCCAGTCGGAGTCACCTAGTGCAG”, the binding signal was 9870 fluorescence intensity (a.u.).

Take “GGGTGGTAGGGTTTATACCTGTAAATATTTTCTTCGGTATCGGAGTCACCTAGTGCAG”: the binding signal is 10800 fluorescence intensity (a.u.). For “CTTTTACGTCTCGTGCGCTACCCCGTTTTATTATTGCCGACGGAGTCACCTAGTGCAG”, the binding signal was 12200 fluorescence intensity (a.u.). “ATCGATATGATCTGCTTATAACTGAACCTTTAACCTTTTTCGGAGTCACCTAGTGCAG”: the binding signal is 8220 fluorescence intensity (a.u.). As to “GTTCCATATATTTTAGCACATCTGTAGCACACAGCACATACGGAGTCACCTAGTGCAG”, the binding signal was 8680 ± 733 fluorescence intensity (a.u.). On to “TTTTACATGATTGGATGACAAAGCCTATTTCGTTTTGTTGCGGAGTCACCTAGTGCAG”, for which the binding signal was 8080 fluorescence intensity (a.u.).

Turning to “TTAATTTCTGTTTTGTAATGTTTATGTAATATATACTCTCCGGAGTCACCTAGTGCAG”, the binding signal was 8940 fluorescence intensity (a.u.). The figure for “GCAACTTCTCCGACGACGAGGAGCGCCTCATCATCCGCCTCGGAGTCACCTAGTGCAG” is 10100 fluorescence intensity (a.u.); for “ACTTCTTCTCACTCAATTCCTCTTCTATTTTCTGAGATTGCGGAGTCACCTAGTGCAG” it is 9300 fluorescence intensity (a.u.). “GCGGCGCTGCAGCGCGCCAGGTCGTCCGTCTTTATCCGTCCGGAGTCACCTAGTGCAG”: the binding signal is 8700 fluorescence intensity (a.u.).

For the sequence “CAACTCTTCGTTTTTCCCATACATACTTCCTAAACTGCTACGGAGTCACCTAGTGCAG”, the binding signal is 10700 fluorescence intensity (a.u.). Consider “ACCCACATTAGTCACACGCACACACACCAACATCCACACACGGAGTCACCTAGTGCAG”, for which the binding signal was 11000 fluorescence intensity (a.u.). The value for “CCACTTGTACATATACAACTTGTTTTGTGGGGAGGGGTGTCGGAGTCACCTAGTGCAG” was 12700 fluorescence intensity (a.u.); that for “CACTACCTCAGTATTCTCTACTACTACTCTTTTCTCAGAGCGGAGTCACCTAGTGCAG” was 8470 fluorescence intensity (a.u.). For the sequence “ACCGGCCCACAACGACCCAGACACTCTCGCCGTCGCCGCCCGGAGTCACCTAGTGCAG”, the binding signal was 9240 fluorescence intensity (a.u.). As for “AGAGGAGACAGAACCCCTGACTTTATACAGTTTGCAGTTACGGAGTCACCTAGTGCAG”, the binding signal is 8340 fluorescence intensity (a.u.).

On to “TATTAGCTACTCCACAGCGTTAGCTTCGTCCACCCAATTTCGGAGTCACCTAGTGCAG”, for which the binding signal was 10200 fluorescence intensity (a.u.). “GTCATTGGCTTCGCATCGCCTAGGGGTTTATTGTAGTGTCCGGAGTCACCTAGTGCAG”: the binding signal was 8360 fluorescence intensity (a.u.). Take “GAGAGGTGTTGCAATGTGCATTGGATGTGTAGATAGAGCCCGGAGTCACCTAGTGCAG”: the binding signal was 8040 fluorescence intensity (a.u.).

As for “AGTGGTTTCATATTCTGTCAAGTTGCACATTGCTCTAATTCGGAGTCACCTAGTGCAG”, the binding signal was 9810 fluorescence intensity (a.u.). Turning to “GCCCCATACATTTCTGATTGCTCCCATACGATTTGGGCGGCGGAGTCACCTAGTGCAG”, the binding signal was 10300 fluorescence intensity (a.u.). On to “GGTGGCTGCTGATTCTTTCTTCTTCTCCTCTCTCGCTGGCCGGAGTCACCTAGTGCAG”, for which the binding signal was 9300 fluorescence intensity (a.u.). In the case of “GCTGTCTCGCTCAAGCGCGACCTACCACAGCATCGGATCGCGGAGTCACCTAGTGCAG”, the binding signal is 8050 fluorescence intensity (a.u.). The figure for “TGGAGACCACGTCAGCACCCTCTCTCTTTTTCTCCTCTCTCGGAGTCACCTAGTGCAG” is 8590 fluorescence intensity (a.u.). Take “CAATCTCCCACTCCATTCCGGCCGCGCATTCTCCCGCTCTCGGAGTCACCTAGTGCAG”: the binding signal was 14400 fluorescence intensity (a.u.). With “CATCGTCTTTTCTGTTCCGTGCAAGCGCTGTTGCCTGCCTCGGAGTCACCTAGTGCAG”, the binding signal was 8780 fluorescence intensity (a.u.). The value for “GACAGTTTTTCGGGTTCCTATCTTTCACGTTTTCGTCCATCGGAGTCACCTAGTGCAG” was 8320 fluorescence intensity (a.u.). Turning to “TGCAGAACATGAATCACACTCATCCTTGCACTGGCCATCCCGGAGTCACCTAGTGCAG”, the binding signal was 8890 fluorescence intensity (a.u.). For the sequence “TGGGACTTTATTTGCACTGGTTTTGGGAGTTGAGGGACACCGGAGTCACCTAGTGCAG”, the binding signal was 8550 fluorescence intensity (a.u.).

As for “GTGGTTGATTTGACCTTTTACATTGTACAGATGGTATTGGCGGAGTCACCTAGTGCAG”, the binding signal is 8480 fluorescence intensity (a.u.).

For the sequence “CCACCATTCCGCGTTAAAGCGTTTTCCCGCACGGGCTGAGCGGAGTCACCTAGTGCAG”, the binding signal is 8220 fluorescence intensity (a.u.). Turning to “AGAAGACGACACTCCCCGCCATCCAGAGCTGCCCTATATGCGGAGTCACCTAGTGCAG”, the binding signal is 8280 fluorescence intensity (a.u.). For “GTTTGACCGTTTATTTTATTCAAAAACTTTTGTGATATGTCGGAGTCACCTAGTGCAG”, the binding signal was 8440 fluorescence intensity (a.u.). On to “GCCGATAAGGTGCTCCGCCTCCGCCGCGGCTTGCCTTACACGGAGTCACCTAGTGCAG”, for which the binding signal is 8690 fluorescence intensity (a.u.). “ACGCTATCCCGCCGCCGCCGCGTGTCTCCCCAATCCCAATCGGAGTCACCTAGTGCAG”: the binding signal is 8760 fluorescence intensity (a.u.). In the case of “CGCCCCTCCCCTTTGGCGCCGCCGCGCCTGCGTTGACCCTCGGAGTCACCTAGTGCAG”, the binding signal is 8230 fluorescence intensity (a.u.). Turning to “CCAATTCCCACTTGTCAGTTAGAACTTCACATGTCCAAATCGGAGTCACCTAGTGCAG”, the binding signal was 8570 fluorescence intensity (a.u.). Consider “TCTTGTGCCTTTTGTTCTTATGTAAGCTTATGTGTCATCTCGGAGTCACCTAGTGCAG”, for which the binding signal is 11300 fluorescence intensity (a.u.). Consider “ATTTTCAACCCCGTCACATGTGACTAGTTATCGGATCGCACGGAGTCACCTAGTGCAG”, for which the binding signal was 8120 fluorescence intensity (a.u.). As for “CGATTCGCGCTCTCCCCGACTCCAGCGCCTTCGTCTTCTTCGGAGTCACCTAGTGCAG”, the binding signal was 9960 fluorescence intensity (a.u.).

In the case of “GCGGCGGAGGAGGGCAAGGCGAAGTGCGGCGGCGGGGAAGCGGAGTCACCTAGTGCAG”, the binding signal is 10500 fluorescence intensity (a.u.). For “TGTATTTTTCTCCATCCCTTTCTTCAGTACCAGGATTAATCGGAGTCACCTAGTGCAG”, the binding signal is 9690 fluorescence intensity (a.u.). Turning to “GCACCACTCTCCTCTCTCTTGGTTCCATGCCTCGCCGTTTCGGAGTCACCTAGTGCAG”, the binding signal was 10000 fluorescence intensity (a.u.). As for “CGGCGCTCGGTTACACACACAGCCGATCCTCACCGTCCGTCGGAGTCACCTAGTGCAG”, the binding signal is 9380 fluorescence intensity (a.u.).

With “GGTCTCCCGGCGCCGACCTCGGCTTCTTCCTCCACCTCTCCGGAGTCACCTAGTGCAG”, the binding signal is 9800 fluorescence intensity (a.u.). On to “GGCAACTACACAGGATCCTGACCTGAATTTTCAGATGGGGCGGAGTCACCTAGTGCAG”, for which the binding signal is 8990 fluorescence intensity (a.u.). As to “GGATTCCGCCCCTGGGTTGTTTATTGTGTGATTCTTTTTTCGGAGTCACCTAGTGCAG”, the binding signal was 9400 fluorescence intensity (a.u.). In the case of “GCCTGTCACTGCCCTCGTCGCATCGTCGTCGCTGTCGTCGCGGAGTCACCTAGTGCAG”, the binding signal was 8100 fluorescence intensity (a.u.). On to “ATGGAGATGGGGTGGGTTGGATTTGGATTGGATTTCTGCCCGGAGTCACCTAGTGCAG”, for which the binding signal was 16300 fluorescence intensity (a.u.).
